Laboratory results published in the supplement of paper PMC10331698.
± gives the standard deviation of the averaged measurements. Most entries show no effect beyond the scatter of the controls.

Tests used:
Assay in all cases: level (log10 ratio to DMSO vehicle control); higher = higher biomarker level / cell amount than vehicle control
[1] = compound: NC(=O)C(F)(F)C(F)(F)F [Pentafluoropropionamide]; details: 2200 nM; in DMSO
Experimental: (§1)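 BioMAP Diversity Plus panel of 12 human primary cell co-culture systems (3C, 4H, LPS, SAg, BT, BF4T, BE3C, CASM3C, HDF3CGF, KF3CT, MyoF, Mphg). Compounds were added 1 h before stimulation and left for 24 h (MyoF 48 h; BT 72 h for soluble read-outs or 6 d for IgG). Biomarkers were read by ELISA, cytotoxicity by SRB, PBMC viability and proliferation by Alamar Blue. Each well value was divided by the mean of 8 DMSO control wells on the same plate and log10 transformed; duplicate blinded samples were tested at 4 concentrations.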

[2] = compound: FC(F)(F)C(F)(F)C(F)(F)CC1CO1 [1H,1H-Heptafluorobutyl epoxide]; details: 2200 nM; in DMSO
Experimental: as §1

[3] = compound: O=C(O)C(F)(F)C(F)(F)C(F)F [4H-Perfluorobutanoic acid]; details: in DMSO
Experimental: as §1

[4] = compound: O=S(=O)(O)C(F)(F)C(F)(F)C(F)(F)C(F)(F)C(F)(F)C(F)(F)C(F)(F)C(F)(F)F [Potassium perfluorooctanesulfonate]; details: 2200 nM; in DMSO
Experimental: as §1

[5] = compound: C=CC(F)(F)C(F)(F)C(F)(F)C(F)(F)C(F)(F)C(F)(F)C(F)(F)C(F)(F)C=C [1,8-Divinylperfluorooctane]; details: in DMSO
Experimental: as §1

[6] = compound: COC(=O)C(F)(F)C(F)(F)OC(F)(C(F)(F)F)C(F)(F)OC(F)=C(F)F [Methyl perfluoro(3-(1-ethenyloxypropan-2-yloxy)propanoate)]; details: in DMSO
Experimental: as §1

[7] = compound: O=P(O)(O)CCC(F)(F)C(F)(F)C(F)(F)C(F)(F)C(F)(F)C(F)(F)F [2-(Perfluorohexyl)ethylphosphonic acid]; details: 2200 nM; in DMSO
Experimental: as §1

[8] = compound: FC(F)(F)C(F)(F)C(F)(F)CI [Heptafluorobutyl iodide]; details: 2200 nM; in DMSO
Experimental: as §1

[9] = compound: O=S(=O)(F)C(F)(F)C(F)(F)C(F)(F)C(F)(F)C(F)(F)C(F)(F)C(F)(F)C(F)(F)F [Perfluorooctanesulfonyl fluoride]; details: 2200 nM; in DMSO
Experimental: as §1

[10] = compound: OCC(F)(F)C(F)(F)C(F)(F)C(F)(F)C(F)(F)C(F)F [1H,1H,7H-Dodecafluoro-1-heptanol]; details: 2200 nM; in DMSO
Experimental: as §1

[11] = compound: CO[Si](C)(CCC(F)(F)C(F)(F)C(F)(F)C(F)(F)C(F)(F)C(F)(F)F)OC [Dimethoxymethyl((perfluorohexyl)ethyl)silane]; details: in DMSO
Experimental: as §1

[12] = compound: O=S(=O)(O)C(F)(F)C(F)(F)C(F)(F)C(F)(F)C(F)(F)C(F)(F)C(F)(F)C(F)(F)F [Perfluorooctanesulfonic acid]; details: 2200 nM; in DMSO
Experimental: as §1

[13] = compound: OCCCCC(F)(F)C(F)(F)C(F)(F)C(F)(F)F [4:4 Fluorotelomer alcohol]; details: 2200 nM; in DMSO
Experimental: as §1

[14] = compound: NS(=O)(=O)C(F)(F)C(F)(F)C(F)(F)C(F)(F)C(F)(F)C(F)(F)C(F)(F)C(F)(F)F [Perfluorooctanesulfonamide]; details: in DMSO
Experimental: as §1

[15] = compound: O=S(=O)(OCC(F)(F)F)C(F)(F)C(F)(F)C(F)(F)C(F)(F)F [2,2,2-Trifluoroethyl perfluorobutanesulfonate]; details: 2200 nM; in DMSO
Experimental: as §1

[16] = compound: NC(=O)C(F)(F)C(F)(F)C(F)(F)C(F)F; details: in DMSO
Experimental: as §1

[17] = compound: C=CC(=O)OCC(F)(F)C(F)(F)C(F)(F)C(F)(F)C(F)(F)C(F)(F)C(F)(F)F [1H,1H-Perfluorooctyl acrylate]; details: 2200 nM; in DMSO
Experimental: as §1

[18] = compound: C=C(C)C(=O)OCC(F)(F)C(F)(F)C(F)(F)C(F)(F)C(F)(F)C(F)(F)C(F)(F)F; details: in DMSO
Experimental: as §1

| Test System | level (log10) [1] | level (log10) [2] | level (log10) ([3]; 2200 nM) | level (log10) ([3]; 6700 nM) | level (log10) ([3]; 20000 nM) | level (log10) ([3]; 60000 nM) | level (log10) [4] | level (log10) ([5]; 740 nM) | level (log10) ([5]; 2200 nM) | level (log10) ([6]; 740 nM) | level (log10) ([6]; 2200 nM) | level (log10) [7] | level (log10) [8] | level (log10) [9] | level (log10) [10] | level (log10) ([11]; 740 nM) | level (log10) ([11]; 2200 nM) | level (log10) [12] | level (log10) [13] | level (log10) ([14]; 2200 nM) | level (log10) ([14]; 6700 nM) | level (log10) ([14]; 20000 nM) | level (log10) [15] | level (log10) ([16]; 2200 nM) | level (log10) ([16]; 6700 nM) | level (log10) ([16]; 20000 nM) | level (log10) ([16]; 60000 nM) | level (log10) [17] | level (log10) ([18]; 740 nM) | level (log10) ([18]; 2200 nM) |
| --- | --- | --- | --- | --- | --- | --- | --- | --- | --- | --- | --- | --- | --- | --- | --- | --- | --- | --- | --- | --- | --- | --- | --- | --- | --- | --- | --- | --- | --- | --- |
| 3C:CCL2/MCP-1 | 0.019 ± 0.025 | 0.006 ± 0.018 | -0.0035 ± 0.015 | -0.02 ± 0.061 | -0.006 ± 0.05 | 0.0215 ± 0.03 | 0.022 ± 0.035 | 0.0105 ± 0.028 | -0.0015 ± 0.029 | 0.0075 ± 0.0064 | 0.0015 ± 0.0035 | 0.0045 ± 0.023 | 0.016 ± 0.023 | -0.001 ± 0.035 | 0.0155 ± 0.019 | 0.0085 ± 0.043 | -0.006 ± 0.0028 | 0.019 ± 0.028 | 0.022 ± 0.038 | 0.025 ± 0.024 | -0.0015 ± 0.0021 | 0.085 ± 0.0057 | 0.02 ± 0.05 | -0.013 ± 0.018 | -0.01 ± 0.013 | -0.0135 ± 0.011 | 0.015 ± 0.042 | 0.01 ± 0.033 | 0.011 ± 0.024 | 0.0035 ± 0.0078 |
| 3C:CD54/ICAM-1 | 0.011 ± 0.025 | 0.0015 ± 0.03 | 0.0045 ± 0.0021 | -0.016 ± 0.0014 | -0.0105 ± 0.018 | 0.0025 ± 0.0092 | -0.004 ± 0.018 | 0.011 ± 0.035 | -0.0035 ± 0.0035 | 0.01 ± 0.0085 | 0.0005 ± 0.0035 | 0.005 ± 0.037 | 0.0005 ± 0.022 | 0.006 ± 0.017 | -0.0005 ± 0.0035 | -0.002 ± 0.0042 | 0.012 | 0.004 ± 0.016 | -0.01 ± 0.021 | 0.0045 ± 0.0035 | -0.0005 ± 0.005 | 0.002 ± 0.011 | 0.005 ± 0.0071 | -0.021 ± 0.014 | -0.0095 ± 0.013 | -0.0115 ± 0.019 | -0.0095 ± 0.025 | 0.014 ± 0.021 | 0.018 ± 0.027 | -0.006 ± 0.02 |
| 3C:CD62E/E-Selectin | 0.0055 ± 0.013 | -0.025 ± 0.025 | 0.0275 ± 0.005 | -0.024 | -0.0235 ± 0.0092 | 0.017 ± 0.03 | 0.0005 ± 0.013 | 0.0135 ± 0.00071 | -0.012 ± 0.0057 | -0.0035 ± 0.032 | -0.017 ± 0.023 | 0.0035 ± 0.022 | -0.01 ± 0.0057 | 0.0205 ± 0.012 | 0.005 ± 0.011 | -0.0105 ± 0.029 | -0.0065 ± 0.023 | 0.0105 ± 0.0035 | -0.002 ± 0.042 | 0.023 ± 0.0042 | -0.006 ± 0.02 | 0.043 ± 0.011 | -0.0175 ± 0.0064 | -0.013 ± 0.02 | -0.0055 ± 0.022 | -0.027 ± 0.0014 | -0.016 ± 0.018 | 0.0115 ± 0.029 | 0.004 ± 0.017 | -0.0165 ± 0.029 |
| 3C:CD87/uPAR | -0.0345 ± 0.029 | -0.018 ± 0.054 | 0.003 ± 0.017 | -0.0265 ± 0.0092 | -0.0065 ± 0.0092 | 0.0095 ± 0.0064 | 0.007 ± 0.0057 | 0.004 ± 0.038 | -0.023 ± 0.072 | -0.022 ± 0.03 | 0.002 ± 0.016 | 0.024 ± 0.0057 | -0.04 ± 0.02 | 0.0015 ± 0.0064 | 0.003 ± 0.016 | -0.0175 ± 0.018 | -0.011 ± 0.02 | 0.036 ± 0.035 | -0.0005 ± 0.053 | 0.015 ± 0.0014 | 0.006 ± 0.0099 | -0.0425 ± 0.016 | -0.0035 ± 0.013 | -0.027 ± 0.016 | -0.0235 ± 0.036 | -0.022 ± 0.03 | -0.023 ± 0.027 | 0.003 ± 0.02 | -0.022 ± 0.027 | -0.026 ± 0.027 |
| 3C:CD106/VCAM-1 | 0.003 ± 0.0014 | -0.0185 ± 0.016 | -0.0005 ± 0.011 | -0.0075 ± 0.04 | -0.0265 ± 0.005 | 0.006 ± 0.0028 | -0.0065 ± 0.0021 | -0.005 ± 0.0028 | -0.0205 ± 0.016 | 0.001 ± 0.028 | -0.007 ± 0.018 | 0.004 ± 0.021 | -0.0005 ± 0.0092 | 0.003 ± 0.014 | 0.001 ± 0.0014 | -0.0185 ± 0.011 | -0.0175 ± 0.021 | -0.0025 ± 0.018 | -0.0135 ± 0.023 | 0 ± 0.0028 | -0.0005 ± 0.012 | 0.003 ± 0.013 | -0.008 ± 0.011 | -0.015 ± 0.034 | -0.001 ± 0.024 | 0.0135 ± 0.0021 | 0.007 ± 0.016 | -0.0095 ± 0.042 | -0.001 ± 0.0085 | -0.001 ± 0.016 |
| 3C:CD141/Thrombomodulin | -0.019 ± 0.021 | -0.0275 ± 0.043 | -0.0215 ± 0.011 | -0.0285 ± 0.0078 | -0.008 ± 0.013 | 0.0035 ± 0.0035 | 0.0225 ± 0.013 | -0.016 ± 0.037 | -0.027 ± 0.0057 | -0.0285 ± 0.035 | -0.033 ± 0.025 | 0.022 ± 0.0028 | 0.0105 ± 0.0078 | -0.034 ± 0.014 | -0.0005 ± 0.0035 | -0.006 ± 0.03 | -0.0195 ± 0.005 | 0.005 ± 0.02 | -0.004 ± 0.065 | -0.0035 ± 0.05 | 0.018 ± 0.0099 | 0.107 ± 0.0014 | -0.027 ± 0.02 | -0.014 ± 0.03 | -0.0285 ± 0.074 | 0 ± 0.03 | -0.0075 ± 0.026 | -0.008 ± 0.044 | -0.03 ± 0.0042 | -0.0185 ± 0.005 |
| 3C:CD142/Tissue Factor | -0.044 ± 0.051 | 0.0245 ± 0.015 | -0.022 ± 0.031 | -0.004 ± 0.0014 | -0.021 ± 0.0099 | 0.0105 ± 0.005 | -0.013 ± 0.047 | -0.0345 ± 0.06 | -0.0375 ± 0.00071 | -0.008 ± 0.02 | -0.0145 ± 0.0064 | 0.032 ± 0.09 | -0.0335 ± 0.026 | -0.0135 ± 0.005 | 0.0305 ± 0.0078 | 0.003 ± 0.051 | 0.0215 ± 0.0021 | -0.0075 ± 0.039 | 0.0065 ± 0.064 | -0.021 ± 0.02 | -0.05 ± 0.017 | -0.033 ± 0.031 | -0.003 | -0.0145 ± 0.053 | -0.0025 ± 0.066 | 0.006 ± 0.033 | 0.0115 ± 0.036 | 0.0125 ± 0.03 | -0.0235 ± 0.028 | -0.027 ± 0.024 |
